Data reported in PMC8304084, “A Concerted Action of UBA5 C-Terminal Unstructured Regions Is Important for Transfer of Activated UFM1 to UFC1” (International Journal of Molecular Sciences, 2021).
These are yes or no findings as the source states them, for the method shown.

By UniProt entry, the sequences of proteins in these tests, tags left out. Where a name states a change or a piece, a line headed by the entry shows the natural chain unless it says otherwise. Chains listed by the source or under a name are the forms on record and can include a tag or linker. Residues count along the entry.
Full length UFM1, residues 2–83 (P61960, form named): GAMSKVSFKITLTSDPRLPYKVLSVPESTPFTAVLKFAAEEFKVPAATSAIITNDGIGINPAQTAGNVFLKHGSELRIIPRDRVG

Experiments:
[1] = target: Full length UFM1, residues 2–83 (UniProt P61960); experiment: ITC; VP-ITC, 25 °C; UBA5 peptides (~400 µM) titrated into 20–25 µM binding partner; 25 mM HEPES pH 7.5, 100 mM NaCl; one-site model; a single profile for each interaction; both purified
[2] = target: GABARAPL2, residues 3–116 (UniProt P60520); experiment: as above

For “UBA5 C-terminal region R2, residues 359–376 (from UniProt Q9GZZ9 359-376) (peptide)”, the binding [1] was “no binding (tested: KD >100 µM (estimated value))” and the binding [2] was “no binding (tested: KD >100 µM (estimated value))”.
